Measured data: PubChem BioAssay AID1224826 (NIAID, 2016)
The deposit covers about 17,000 reagents; shown is an unselected part. Over the whole deposit, about 1,110 (6.6%) were called active. 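Active means lowered or raised reporter signal; replicate intensities are raw and not normalised per plate.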

Assay: 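Genes that change LPS-induced Tnf promoter activity in mouse macrophages when knocked down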 (primary screen)
Cell system: RAW264.7 G9 macrophages from mouse bearing reporters for p65 (GFP) and the Tnf promoter (mCherry)
Knock-down reagent: siRNA pool against mouse genes, 100 nM
Timing: 16 h of LPS stimulation, after 2 days of siRNA transfection
Challenge: bacterial lipopolysaccharide (Salmonella minnesota R595), 10 ng/ml
Read-out: 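Nuclear mCherry signal of the Tnf promoter reporter measured by imaging after background removal, scaled to each plate median and turned into robust z-scores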
Reading the numbers: Tnf reporter robust z-score: higher = stronger Tnf promoter reporter signal after LPS; Tnf reporter intensity: higher = stronger Tnf promoter reporter signal
Rule for the call: 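Called active when robust z-score is at most -1.3, matching the median of the Tlr4 knock-down control, or over 3; control wells and wells with under 50 cells never active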
Calls: active = Tnf reporter clearly lowered or raised; inactive = no clear change in Tnf reporter

| target gene | Tnf reporter robust z-score | fewer than 50 cells in well | Tnf reporter intensity, replicate 1 | Tnf reporter intensity, replicate 2 | outcome |
| --- | --- | --- | --- | --- | --- |
| Akap1 | -0.46 | enough cells in well | 119 | 174 | inactive |
| Aurkb | -0.8 | enough cells in well | 206 | 112 | inactive |
| Rhou | 0.19 | enough cells in well | 332 | 215 | inactive |
| Cfap263 | – | fewer than 50 cells per well; well left out of calls | 218 | 67.6 | inactive |
| Mageb3 | -0.05 | enough cells in well | 209 | 126 | inactive |
| Efnb1 | 0.14 | enough cells in well | 238 | 244 | inactive |
| Pmm1 | – | fewer than 50 cells per well; well left out of calls | 67.3 | 109 | inactive |
| Or7g25 | – | fewer than 50 cells per well; well left out of calls | 43.2 | 60.5 | inactive |
| Tfcp2 | 1.14 | enough cells in well | 288 | 208 | inactive |
| A630052C17Rik | 1.32 | enough cells in well | 238 | 232 | inactive |
| Anxa13 | -0.36 | enough cells in well | 146 | 91.7 | inactive |
| Dbr1 | -0.18 | enough cells in well | 214 | 217 | inactive |
| Card10 | -1.19 | enough cells in well | 153 | 90.9 | inactive |
| Pparg | 0.34 | enough cells in well | 285 | 204 | inactive |
| Prdm1 | -0.6 | enough cells in well | 201 | 149 | inactive |
| Calr3 | 0.7 | enough cells in well | 209 | 210 | inactive |
| Ascl2 | – | fewer than 50 cells per well; well left out of calls | 131 | 96.9 | inactive |
| Cd300c | -0.4 | enough cells in well | 197 | 195 | inactive |
| Mybpc3 | 0.03 | enough cells in well | 279 | 197 | inactive |
| Rad51d | -0.3 | enough cells in well | 324 | 154 | inactive |
| Magea4 | 1.29 | enough cells in well | 278 | 205 | inactive |
| Abr | -0.87 | enough cells in well | 94.8 | 130 | inactive |
| Cd1d2 | 0.26 | enough cells in well | 181 | 310 | inactive |
| Abi3 | 0.37 | enough cells in well | 193 | 248 | inactive |
| B230220N19Rik | -0.24 | enough cells in well | 152 | 156 | inactive |
| Art4 | 1.47 | enough cells in well | 295 | 205 | inactive |

The list goes on; the last 7 above are carried over.
| target gene | Tnf reporter robust z-score | fewer than 50 cells in well | Tnf reporter intensity, replicate 1 | Tnf reporter intensity, replicate 2 | outcome |
| --- | --- | --- | --- | --- | --- |
| Rad51d | -0.3 | enough cells in well | 324 | 154 | inactive |
| Magea4 | 1.29 | enough cells in well | 278 | 205 | inactive |
| Abr | -0.87 | enough cells in well | 94.8 | 130 | inactive |
| Cd1d2 | 0.26 | enough cells in well | 181 | 310 | inactive |
| Abi3 | 0.37 | enough cells in well | 193 | 248 | inactive |
| B230220N19Rik | -0.24 | enough cells in well | 152 | 156 | inactive |
| Art4 | 1.47 | enough cells in well | 295 | 205 | inactive |
| Oog1 | 1.23 | enough cells in well | 194 | 202 | inactive |
| Ik | -0.19 | enough cells in well | 237 | 163 | inactive |
| Pilra | 2.83 | enough cells in well | 286 | 123 | inactive |
| Rprd1a | -0.69 | enough cells in well | 143 | 118 | inactive |
| Pgap2 | – | fewer than 50 cells per well; well left out of calls | 78.4 | 63.9 | inactive |
| Khdrbs2 | 0.46 | enough cells in well | 211 | 159 | inactive |
| Thrb | -0.75 | enough cells in well | 208 | 79 | inactive |
| Tmod1 | -0.56 | enough cells in well | 96.4 | 65.7 | inactive |
| Ttc34 | 0.48 | enough cells in well | 230 | 161 | inactive |
| Traf5 | -0.16 | enough cells in well | 237 | 194 | inactive |
| Grhpr | 3.23 | enough cells in well | 474 | 548 | active |
| Apobr | -0.55 | enough cells in well | 138 | 137 | inactive |
| Pex39 | – | fewer than 50 cells per well; well left out of calls | 105 | 72.7 | inactive |
| Rasa3 | -0.64 | enough cells in well | 236 | 166 | inactive |
| Hmgb3 | -0.38 | enough cells in well | 161 | 205 | inactive |
| Pard3 | -0.3 | enough cells in well | 222 | 160 | inactive |
| Rnf34 | 0.39 | enough cells in well | 167 | 122 | inactive |
| Cox8b | -0.65 | enough cells in well | 119 | 164 | inactive |
| Myh6 | -0.24 | enough cells in well | 280 | 158 | inactive |
| Hsbp1 | -0.11 | enough cells in well | 242 | 169 | inactive |
| Mrps10 | -0.57 | enough cells in well | 206 | 72.9 | inactive |
| Babam1 | – | fewer than 50 cells per well; well left out of calls | 97.3 | 84.9 | inactive |
| Gm5111 | – | fewer than 50 cells per well; well left out of calls | 199 | 169 | inactive |
| Ndufaf1 | 0.77 | enough cells in well | 288 | 132 | inactive |
| Etnppl | -1.39 | enough cells in well | 115 | 93.6 | active |
| Abcd4 | -1.05 | enough cells in well | 129 | 124 | inactive |
| Hes3 | -0.98 | enough cells in well | 246 | 54.3 | inactive |
| Zscan21 | -1.47 | enough cells in well | 70.6 | 53.8 | active |
| Slc30a4 | – | fewer than 50 cells per well; well left out of calls | 24.9 | 40.7 | inactive |
| Sox18 | 0.02 | enough cells in well | 264 | 231 | inactive |
| Lin7b | 0.06 | enough cells in well | 230 | 119 | inactive |
| Espn | -1.06 | enough cells in well | 142 | 98.8 | inactive |
| Tshb | -0.04 | enough cells in well | 308 | 75.9 | inactive |
| Nxpe2 | 0.51 | enough cells in well | 202 | 64.9 | inactive |
| Pnpla8 | 0.38 | enough cells in well | 187 | 168 | inactive |
| Ankrd7 | -0.24 | enough cells in well | 122 | 147 | inactive |
| Gucy2c | 1.24 | enough cells in well | 278 | 126 | inactive |
| Tap2 | 1.34 | enough cells in well | 314 | 210 | inactive |
| Cyp2c39 | 2.36 | enough cells in well | 361 | 285 | inactive |
| Gabra4 | -0.38 | enough cells in well | 208 | 220 | inactive |
| Dmrta2 | 0.28 | enough cells in well | 216 | 119 | inactive |
| Or8g20 | 0.95 | enough cells in well | 112 | 178 | inactive |
| Or52ad1 | – | fewer than 50 cells per well; well left out of calls | 0 | 26.7 | inactive |
| Clec7a | -0.39 | enough cells in well | 135 | 163 | inactive |
| Prl8a6 | 0.2 | enough cells in well | 138 | 139 | inactive |
| Cr1l | -0.06 | enough cells in well | 140 | 215 | inactive |
| Or4c1 | -1.32 | enough cells in well | 104 | 83.5 | active |
| Cib2 | -0.68 | enough cells in well | 216 | 135 | inactive |
| Acp5 | 0.66 | enough cells in well | 177 | 239 | inactive |
